Assay results taken from paper PMC7246803.
No constants are given. Whether binding was seen depends on the method and setting. A result given as binding can be weak or reduced; the word gives no strength. Where a sequence is shown, tags or fusion partners need not be part of it. For some of these results: Binding seen in cells or lysates may run through a third protein.

T1: BTB-A2.1 (AT5G41330), yeast two-hybrid fusion (Arabidopsis thaliana) (UniProt Q9FN67)
T1 sequence: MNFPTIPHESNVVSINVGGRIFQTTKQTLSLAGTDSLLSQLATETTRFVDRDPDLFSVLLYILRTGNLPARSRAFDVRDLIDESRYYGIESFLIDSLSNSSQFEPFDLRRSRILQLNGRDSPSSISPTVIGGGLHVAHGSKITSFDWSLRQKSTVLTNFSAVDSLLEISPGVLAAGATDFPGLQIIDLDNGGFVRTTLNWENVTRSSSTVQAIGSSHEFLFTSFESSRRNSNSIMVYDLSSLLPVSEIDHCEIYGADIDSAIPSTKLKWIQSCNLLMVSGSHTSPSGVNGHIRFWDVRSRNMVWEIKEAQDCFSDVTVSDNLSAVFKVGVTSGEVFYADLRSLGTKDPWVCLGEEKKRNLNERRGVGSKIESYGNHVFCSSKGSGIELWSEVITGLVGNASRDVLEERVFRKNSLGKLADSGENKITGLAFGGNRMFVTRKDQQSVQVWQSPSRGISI


How the values were obtained:
[1] = target: T1, BTB-A2.1 (AT5G41330), yeast two-hybrid fusion (Arabidopsis thaliana); assay: two-hybrid; AD (pGADT7) and BD (pGBKT7) fusions co-transformed into yeast strain AH109; growth on SD-WL or SD-WLHA at dilutions 10^-1, 10^-2, 10^-3, 30 °C, 3-5 days
[2] = target: BTB-A2.2-cYFP (Arabidopsis thaliana); assay: split reporter; BiFC with cYFP and nYFP fusions in Nicotiana benthamiana leaves infiltrated with A. tumefaciens GV3101; confocal microscopy 48-72 h after infiltration
[3] = target: BTB-A2.2 (AT3G09030), yeast two-hybrid fusion (Arabidopsis thaliana); assay: two-hybrid; AD (pGADT7) and BD (pGBKT7) fusions co-transformed into yeast strain AH109; growth on SD-WL or SD-WLHA at dilutions 10^-1, 10^-2, 10^-3, 30 °C, 3-5 days

Row | Molecule | binding [3] | also measured
1 | BTB-A2.2 (AT3G09030), yeast two-hybrid fusion (Arabidopsis thaliana) | – | binding [1]: binds
2 | SnRK2.3-nYFP (enzyme, UniProt Q39193 1-361) MDRAPVTTGPLDMPIMHDSDRYDFVKDIGSGNFGVARLMRDKLTKELVAVKYIERGDKIDENVQREIINHRSLRHPNIVRFKEVILTPTHLAIIMEYASGGELYERICNAGRFSEDEARFFFQQLLSGVSYCHSMQICHRDLKLENTLLDGSPAPRLKICDFGYSKSSVLHSQPKSTVGTPAYIAPEVLLRQEYDGKIADVWSCGVTLYVMLVGAYPFEDPEEPRDYRKTIQRILSVKYSIPDDIRISPECCHLISRIFVADPATRISIPEIKTHSWFLKNLPADLMNESNTGSQFQEPEQPMQSLDTIMQIISEATIPAVRNRCLDDFMTDNLDLDDDMDDFDSESEIDIDSSGEIVYAL | – | binding [2]: binds
3 | SnRK2.3, yeast two-hybrid fusion (enzyme, UniProt Q39193 1-361) MDRAPVTTGPLDMPIMHDSDRYDFVKDIGSGNFGVARLMRDKLTKELVAVKYIERGDKIDENVQREIINHRSLRHPNIVRFKEVILTPTHLAIIMEYASGGELYERICNAGRFSEDEARFFFQQLLSGVSYCHSMQICHRDLKLENTLLDGSPAPRLKICDFGYSKSSVLHSQPKSTVGTPAYIAPEVLLRQEYDGKIADVWSCGVTLYVMLVGAYPFEDPEEPRDYRKTIQRILSVKYSIPDDIRISPECCHLISRIFVADPATRISIPEIKTHSWFLKNLPADLMNESNTGSQFQEPEQPMQSLDTIMQIISEATIPAVRNRCLDDFMTDNLDLDDDMDDFDSESEIDIDSSGEIVYAL | binds | –
4 | SnRK2.2, yeast two-hybrid fusion (enzyme, UniProt Q39192 1-362) MDPATNSPIMPIDLPIMHDSDRYDFVKDIGSGNFGVARLMTDRVTKELVAVKYIERGEKIDENVQREIINHRSLRHPNIVRFKEVILTPSHLAIVMEYAAGGELYERICNAGRFSEDEARFFFQQLISGVSYCHAMQICHRDLKLENTLLDGSPAPRLKICDFGYSKSSVLHSQPKSTVGTPAYIAPEILLRQEYDGKLADVWSCGVTLYVMLVGAYPFEDPQEPRDYRKTIQRILSVTYSIPEDLHLSPECRHLISRIFVADPATRITIPEITSDKWFLKNLPGDLMDENRMGSQFQEPEQPMQSLDTIMQIISEATIPTVRNRCLDDFMADNLDLDDDMDDFDSESEIDVDSSGEIVYAL | no binding | –
